Assay results as given in PMC5327418.
Results are given in words; binding and its absence hold for the method and conditions named. Binding seen in cells or lysates may run through a third protein. Here binding means that the protein was enriched with, or labelled near, the bait; the list need not be complete. For some of these results: No binding means not detected with the bait. For some of these results: Sequences can lack the tags named with a protein.

Protein sequences, listed by entry. Tags and fused reporters are not part of them.
UniProt P19659: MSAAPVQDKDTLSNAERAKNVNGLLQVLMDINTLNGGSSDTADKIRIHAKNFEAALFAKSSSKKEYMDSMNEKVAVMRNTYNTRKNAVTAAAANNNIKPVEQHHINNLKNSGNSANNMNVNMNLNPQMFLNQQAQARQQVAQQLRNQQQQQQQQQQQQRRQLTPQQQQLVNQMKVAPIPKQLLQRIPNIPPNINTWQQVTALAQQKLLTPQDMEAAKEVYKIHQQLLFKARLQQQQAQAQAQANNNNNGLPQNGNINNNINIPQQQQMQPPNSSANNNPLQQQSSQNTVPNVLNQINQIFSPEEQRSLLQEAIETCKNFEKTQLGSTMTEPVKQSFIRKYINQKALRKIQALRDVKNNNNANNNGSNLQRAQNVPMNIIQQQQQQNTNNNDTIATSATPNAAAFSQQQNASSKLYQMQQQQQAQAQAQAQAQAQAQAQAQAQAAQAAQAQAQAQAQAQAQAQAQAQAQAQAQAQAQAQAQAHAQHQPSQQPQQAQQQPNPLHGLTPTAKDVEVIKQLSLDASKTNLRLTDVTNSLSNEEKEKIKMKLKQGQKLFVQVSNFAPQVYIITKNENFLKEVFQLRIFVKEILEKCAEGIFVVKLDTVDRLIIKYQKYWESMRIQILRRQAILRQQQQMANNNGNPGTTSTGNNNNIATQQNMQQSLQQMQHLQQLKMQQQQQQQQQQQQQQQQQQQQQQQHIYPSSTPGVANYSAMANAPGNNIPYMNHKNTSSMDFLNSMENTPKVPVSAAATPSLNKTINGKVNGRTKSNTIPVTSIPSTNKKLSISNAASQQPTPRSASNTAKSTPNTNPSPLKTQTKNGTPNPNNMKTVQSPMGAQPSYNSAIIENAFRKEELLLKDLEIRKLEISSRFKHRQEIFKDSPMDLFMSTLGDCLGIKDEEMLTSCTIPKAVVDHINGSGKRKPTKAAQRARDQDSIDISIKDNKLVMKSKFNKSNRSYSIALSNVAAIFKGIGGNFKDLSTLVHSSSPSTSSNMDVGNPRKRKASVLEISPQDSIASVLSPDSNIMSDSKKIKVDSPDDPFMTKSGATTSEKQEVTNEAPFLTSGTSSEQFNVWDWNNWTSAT
UniProt P40356: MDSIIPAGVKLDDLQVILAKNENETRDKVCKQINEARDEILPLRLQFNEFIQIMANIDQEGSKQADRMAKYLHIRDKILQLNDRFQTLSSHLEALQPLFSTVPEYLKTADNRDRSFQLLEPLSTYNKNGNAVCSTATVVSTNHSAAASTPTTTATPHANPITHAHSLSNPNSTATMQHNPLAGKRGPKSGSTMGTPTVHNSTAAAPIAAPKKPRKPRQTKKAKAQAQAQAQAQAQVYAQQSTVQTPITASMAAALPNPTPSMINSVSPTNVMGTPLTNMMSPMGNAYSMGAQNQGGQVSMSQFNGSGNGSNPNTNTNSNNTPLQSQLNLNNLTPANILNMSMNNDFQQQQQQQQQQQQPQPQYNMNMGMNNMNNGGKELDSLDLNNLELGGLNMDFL
UniProt P53114: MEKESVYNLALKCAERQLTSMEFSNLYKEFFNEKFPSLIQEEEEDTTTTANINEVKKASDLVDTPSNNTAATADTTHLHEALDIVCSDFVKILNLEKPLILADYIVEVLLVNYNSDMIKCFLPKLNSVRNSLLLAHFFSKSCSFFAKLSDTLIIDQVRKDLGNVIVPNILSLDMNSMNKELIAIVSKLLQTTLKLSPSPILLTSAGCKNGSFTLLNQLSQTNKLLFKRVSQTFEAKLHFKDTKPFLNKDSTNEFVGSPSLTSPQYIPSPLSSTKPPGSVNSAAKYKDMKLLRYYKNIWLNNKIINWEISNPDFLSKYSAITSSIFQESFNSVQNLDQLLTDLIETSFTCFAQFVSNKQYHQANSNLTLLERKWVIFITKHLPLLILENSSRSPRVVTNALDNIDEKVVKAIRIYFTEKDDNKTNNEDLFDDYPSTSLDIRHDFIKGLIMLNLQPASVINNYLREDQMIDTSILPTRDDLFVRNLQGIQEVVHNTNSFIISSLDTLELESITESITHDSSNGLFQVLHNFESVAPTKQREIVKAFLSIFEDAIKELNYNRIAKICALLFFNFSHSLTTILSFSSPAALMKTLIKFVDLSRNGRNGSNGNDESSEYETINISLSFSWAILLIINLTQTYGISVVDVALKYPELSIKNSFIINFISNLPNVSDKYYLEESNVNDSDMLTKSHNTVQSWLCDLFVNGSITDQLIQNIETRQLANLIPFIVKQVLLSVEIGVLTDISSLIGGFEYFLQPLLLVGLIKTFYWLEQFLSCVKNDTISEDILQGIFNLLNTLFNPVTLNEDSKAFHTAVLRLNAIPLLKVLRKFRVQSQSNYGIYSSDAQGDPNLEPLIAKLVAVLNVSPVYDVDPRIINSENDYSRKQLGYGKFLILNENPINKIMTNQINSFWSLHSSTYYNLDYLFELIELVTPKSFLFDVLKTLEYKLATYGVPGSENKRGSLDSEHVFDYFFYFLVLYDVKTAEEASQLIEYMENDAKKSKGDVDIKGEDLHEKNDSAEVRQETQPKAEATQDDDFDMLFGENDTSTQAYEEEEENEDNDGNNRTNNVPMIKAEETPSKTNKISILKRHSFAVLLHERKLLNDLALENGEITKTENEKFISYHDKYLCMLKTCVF
UniProt P32259: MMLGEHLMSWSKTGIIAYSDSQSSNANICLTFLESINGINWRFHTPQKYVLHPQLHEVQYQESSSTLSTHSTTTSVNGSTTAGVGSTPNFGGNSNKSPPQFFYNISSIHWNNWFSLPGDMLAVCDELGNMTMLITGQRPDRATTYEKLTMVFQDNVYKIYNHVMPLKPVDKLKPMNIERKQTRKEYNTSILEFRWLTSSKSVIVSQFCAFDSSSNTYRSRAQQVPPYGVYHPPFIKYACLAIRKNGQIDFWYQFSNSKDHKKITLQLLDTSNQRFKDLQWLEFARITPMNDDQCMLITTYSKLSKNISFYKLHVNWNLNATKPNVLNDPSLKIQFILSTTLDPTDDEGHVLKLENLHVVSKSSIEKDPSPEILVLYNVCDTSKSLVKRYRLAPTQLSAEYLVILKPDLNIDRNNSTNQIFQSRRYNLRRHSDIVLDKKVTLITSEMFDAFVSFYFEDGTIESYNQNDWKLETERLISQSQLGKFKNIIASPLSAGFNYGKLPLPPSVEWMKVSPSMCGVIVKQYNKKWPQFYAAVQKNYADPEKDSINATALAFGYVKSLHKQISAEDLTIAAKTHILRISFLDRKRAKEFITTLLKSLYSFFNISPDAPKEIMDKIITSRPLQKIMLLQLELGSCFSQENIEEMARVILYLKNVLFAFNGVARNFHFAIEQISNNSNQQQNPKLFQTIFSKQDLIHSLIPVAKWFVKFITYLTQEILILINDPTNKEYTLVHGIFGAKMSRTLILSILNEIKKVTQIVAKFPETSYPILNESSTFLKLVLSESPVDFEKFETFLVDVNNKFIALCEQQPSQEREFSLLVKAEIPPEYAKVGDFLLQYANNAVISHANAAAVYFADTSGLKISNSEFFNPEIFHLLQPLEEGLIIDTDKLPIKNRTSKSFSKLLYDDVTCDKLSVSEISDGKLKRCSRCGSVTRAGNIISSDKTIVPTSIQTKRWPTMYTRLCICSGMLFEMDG
UniProt Q12124: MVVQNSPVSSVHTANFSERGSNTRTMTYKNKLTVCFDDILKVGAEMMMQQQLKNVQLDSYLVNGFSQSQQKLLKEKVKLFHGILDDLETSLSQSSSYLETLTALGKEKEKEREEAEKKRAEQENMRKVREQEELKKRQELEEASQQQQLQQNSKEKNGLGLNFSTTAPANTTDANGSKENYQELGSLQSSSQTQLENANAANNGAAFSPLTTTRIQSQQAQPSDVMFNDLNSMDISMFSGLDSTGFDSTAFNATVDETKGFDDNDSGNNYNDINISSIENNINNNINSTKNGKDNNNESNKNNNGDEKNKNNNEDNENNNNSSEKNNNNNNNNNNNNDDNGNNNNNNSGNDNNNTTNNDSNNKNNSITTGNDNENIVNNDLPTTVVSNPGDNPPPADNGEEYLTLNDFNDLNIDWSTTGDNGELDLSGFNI

T1: Med17-HA (S. cerevisiae (endogenous in S288c)), P32569
T1 chain: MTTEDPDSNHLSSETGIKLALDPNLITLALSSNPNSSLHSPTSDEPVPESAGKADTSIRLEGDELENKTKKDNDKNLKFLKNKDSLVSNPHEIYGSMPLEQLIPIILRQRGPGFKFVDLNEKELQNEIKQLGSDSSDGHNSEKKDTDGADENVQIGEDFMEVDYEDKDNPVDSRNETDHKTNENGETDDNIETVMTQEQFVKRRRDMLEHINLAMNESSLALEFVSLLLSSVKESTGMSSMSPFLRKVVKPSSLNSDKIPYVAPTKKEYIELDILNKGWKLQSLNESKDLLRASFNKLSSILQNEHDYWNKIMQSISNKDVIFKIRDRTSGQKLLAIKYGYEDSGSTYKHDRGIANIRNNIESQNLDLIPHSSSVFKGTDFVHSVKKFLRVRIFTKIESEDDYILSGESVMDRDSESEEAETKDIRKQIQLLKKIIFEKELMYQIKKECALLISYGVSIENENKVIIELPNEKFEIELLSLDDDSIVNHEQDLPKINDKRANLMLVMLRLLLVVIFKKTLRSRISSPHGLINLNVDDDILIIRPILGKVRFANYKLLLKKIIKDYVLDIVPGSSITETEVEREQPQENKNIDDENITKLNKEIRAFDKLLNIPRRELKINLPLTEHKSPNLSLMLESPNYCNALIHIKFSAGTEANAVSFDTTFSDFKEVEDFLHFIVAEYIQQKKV

T2: Med13-HA (S. cerevisiae (endogenous in S288c)) (UniProt P38931)
T2 sequence: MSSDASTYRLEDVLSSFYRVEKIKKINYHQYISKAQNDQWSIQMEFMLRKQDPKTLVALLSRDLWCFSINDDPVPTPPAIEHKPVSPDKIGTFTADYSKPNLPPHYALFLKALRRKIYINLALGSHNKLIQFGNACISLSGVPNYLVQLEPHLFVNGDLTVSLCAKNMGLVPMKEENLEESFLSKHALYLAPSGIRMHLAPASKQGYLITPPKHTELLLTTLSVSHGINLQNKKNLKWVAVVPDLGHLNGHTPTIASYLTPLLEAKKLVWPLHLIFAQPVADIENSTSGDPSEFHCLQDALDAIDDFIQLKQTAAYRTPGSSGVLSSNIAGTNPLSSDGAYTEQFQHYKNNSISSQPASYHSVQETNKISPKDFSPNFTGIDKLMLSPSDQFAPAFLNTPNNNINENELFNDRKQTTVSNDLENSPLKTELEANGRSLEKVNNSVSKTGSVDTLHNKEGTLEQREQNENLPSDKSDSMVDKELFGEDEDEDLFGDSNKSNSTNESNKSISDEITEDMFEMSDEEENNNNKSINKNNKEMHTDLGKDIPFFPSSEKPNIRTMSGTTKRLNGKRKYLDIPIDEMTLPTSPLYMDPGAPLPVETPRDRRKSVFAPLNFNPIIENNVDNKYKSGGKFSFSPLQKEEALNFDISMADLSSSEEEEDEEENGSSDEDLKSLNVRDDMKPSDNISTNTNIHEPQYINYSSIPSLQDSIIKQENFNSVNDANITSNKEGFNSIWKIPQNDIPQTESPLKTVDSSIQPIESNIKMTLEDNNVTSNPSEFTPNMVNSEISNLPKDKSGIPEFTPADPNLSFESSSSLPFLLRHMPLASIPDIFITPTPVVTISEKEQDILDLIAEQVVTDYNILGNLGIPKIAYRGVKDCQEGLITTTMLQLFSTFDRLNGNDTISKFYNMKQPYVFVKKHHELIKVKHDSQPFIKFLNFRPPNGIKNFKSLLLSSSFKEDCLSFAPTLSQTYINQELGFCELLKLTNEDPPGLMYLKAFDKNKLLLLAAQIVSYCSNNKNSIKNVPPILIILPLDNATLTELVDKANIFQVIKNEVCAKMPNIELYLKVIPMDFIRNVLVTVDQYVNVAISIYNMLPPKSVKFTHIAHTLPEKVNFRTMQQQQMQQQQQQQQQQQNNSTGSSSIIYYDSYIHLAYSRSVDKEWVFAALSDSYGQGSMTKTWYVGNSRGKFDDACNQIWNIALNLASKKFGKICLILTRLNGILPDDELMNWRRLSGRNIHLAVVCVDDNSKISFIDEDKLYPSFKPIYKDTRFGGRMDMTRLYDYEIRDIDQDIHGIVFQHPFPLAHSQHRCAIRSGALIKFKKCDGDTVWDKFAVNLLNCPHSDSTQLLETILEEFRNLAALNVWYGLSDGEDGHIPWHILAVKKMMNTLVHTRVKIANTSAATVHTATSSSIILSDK


Legend:
[1] = target: Med17-HA (S. cerevisiae (endogenous in S288c)) (UniProt P32569); assay: affinity purification with mass spectrometry; purification-after-mixing (PAM): Med17-HA cells and differently labelled wild type cells mixed before cryogrinding and CoIP, same conditions as the MAP experiment, 2 h CoIP
[2] = target: T1, Med17-HA (S. cerevisiae (endogenous in …)); assay: affinity purification with mass spectrometry; CoIP of Med17-HA on anti-HA magnetic beads from cryoground yeast lysate, 2 h at 4 °C; 20 mM HEPES pH 7.5, 300 mM KOAc, 10% glycerol, 0.01% NP-40, 6 mM MnSO4, 1 mM DTT, Cyanase nuclease; parallel control CoIP from 15N-labelled wild type cells, mixing after purification (MAP); GeLC-MS/MS, three biological replicates; conditions: remark: other sources report otherwise
[3] = target: Med17-HA (S. cerevisiae (endogenous in S288c)) (UniProt P32569); assay: as above
[4] = target: T2, Med13-HA (S. cerevisiae (endogenous in S288c)); assay: affinity purification with mass spectrometry; CoIP of Med13-HA (CKM subunit) under the same conditions as for Med17-HA in the MAP experiment

binding [1]	binding [2]	also measured	Molecule
binds			Med15 (from UniProt P19659 1-1081)
binds			Med3 (from UniProt P40356 1-397)
binds			Med5 (from UniProt P53114 1-1132)
binds			Med16 (from UniProt P32259 1-974)
binds			Med2 (from UniProt Q12124 1-431)
	binds		Ssn2, P38931 1-1420 (protein) MSSDASTYRLEDVLSSFYRVEKIKKINYHQYISKAQNDQWSIQMEFMLRKQDPKTLVALLSRDLWCFSINDDPVPTPPAIEHKPVSPDKIGTFTADYSKPNLPPHYALFLKALRRKIYINLALGSHNKLIQFGNACISLSGVPNYLVQLEPHLFVNGDLTVSLCAKNMGLVPMKEENLEESFLSKHALYLAPSGIRMHLAPASKQGYLITPPKHTELLLTTLSVSHGINLQNKKNLKWVAVVPDLGHLNGHTPTIASYLTPLLEAKKLVWPLHLIFAQPVADIENSTSGDPSEFHCLQDALDAIDDFIQLKQTAAYRTPGSSGVLSSNIAGTNPLSSDGAYTEQFQHYKNNSISSQPASYHSVQETNKISPKDFSPNFTGIDKLMLSPSDQFAPAFLNTPNNNINENELFNDRKQTTVSNDLENSPLKTELEANGRSLEKVNNSVSKTGSVDTLHNKEGTLEQREQNENLPSDKSDSMVDKELFGEDEDEDLFGDSNKSNSTNESNKSISDEITEDMFEMSDEEENNNNKSINKNNKEMHTDLGKDIPFFPSSEKPNIRTMSGTTKRLNGKRKYLDIPIDEMTLPTSPLYMDPGAPLPVETPRDRRKSVFAPLNFNPIIENNVDNKYKSGGKFSFSPLQKEEALNFDISMADLSSSEEEEDEEENGSSDEDLKSLNVRDDMKPSDNISTNTNIHEPQYINYSSIPSLQDSIIKQENFNSVNDANITSNKEGFNSIWKIPQNDIPQTESPLKTVDSSIQPIESNIKMTLEDNNVTSNPSEFTPNMVNSEISNLPKDKSGIPEFTPADPNLSFESSSSLPFLLRHMPLASIPDIFITPTPVVTISEKEQDILDLIAEQVVTDYNILGNLGIPKIAYRGVKDCQEGLITTTMLQLFSTFDRLNGNDTISKFYNMKQPYVFVKKHHELIKVKHDSQPFIKFLNFRPPNGIKNFKSLLLSSSFKEDCLSFAPTLSQTYINQELGFCELLKLTNEDPPGLMYLKAFDKNKLLLLAAQIVSYCSNNKNSIKNVPPILIILPLDNATLTELVDKANIFQVIKNEVCAKMPNIELYLKVIPMDFIRNVLVTVDQYVNVAISIYNMLPPKSVKFTHIAHTLPEKVNFRTMQQQQMQQQQQQQQQQQNNSTGSSSIIYYDSYIHLAYSRSVDKEWVFAALSDSYGQGSMTKTWYVGNSRGKFDDACNQIWNIALNLASKKFGKICLILTRLNGILPDDELMNWRRLSGRNIHLAVVCVDDNSKISFIDEDKLYPSFKPIYKDTRFGGRMDMTRLYDYEIRDIDQDIHGIVFQHPFPLAHSQHRCAIRSGALIKFKKCDGDTVWDKFAVNLLNCPHSDSTQLLETILEEFRNLAALNVWYGLSDGEDGHIPWHILAVKKMMNTLVHTRVKIANTSAATVHTATSSSIILSDK
	binds		Ssn3, P39073 1-555 (protein) MYNGKDRAQNSYQPMYQRPMQVQGQQQAQSFVGKKNTIGSVHGKAPMLMANNDVFTIGPYRARKDRMRVSVLEKYEVIGYIAAGTYGKVYKAKRQINSGTNSANGSSLNGTNAKIPQFDSTQPKSSSSMDMQANTNALRRNLLKDEGVTPGRIRTTREDVSPHYNSQKQTLIKKPLTVFYAIKKFKTEKDGVEQLHYTGISQSACREMALCRELHNKHLTTLVEIFLERKCVHMVYEYAEHDLLQIIHFHSHPEKRMIPPRMVRSIMWQLLDGVSYLHQNWVLHRDLKPANIMVTIDGCVKIGDLGLARKFHNMLQTLYTGDKVVVTIWYRAPELLLGARHYTPAVDLWSVGCIFAELIGLQPIFKGEEAKLDSKKTVPFQVNQLQRILEVLGTPDQKIWPYLEKYPEYDQITKFPKYRDNLATWYHSAGGRDKHALSLLYHLLNYDPIKRIDAFNALEHKYFTESDIPVSENVFEGLTYKYPARRIHTNDNDIMNLGSRTKNNTQASGITAGAAANALGGLGVNRRILAAAAAAAAAVSGNNASDEPSRKKNRR
	binds		Ssn8, P47821 1-323 (protein) MSGSFWTSTQRHHWQYTKASLAKERQKLWLLECQLFPQGLNIVMDSKQNGIEQSITKNIPITHRDLHYDKDYNLRIYCYFLIMKLGRRLNIRQYALATAHIYLSRFLIKASVREINLYMLVTTCVYLACKVEECPQYIRTLVSEARTLWPEFIPPDPTKVTEFEFYLLEELESYLIVHHPYQSLKQIVQVLKQPPFQITLSSDDLQNCWSLINDSYINDVHLLYPPHIIAVACLFITISIHGKPTKGSSLASAASEAIRDPKNSSSPVQIAFNRFMAESLVDLEEVMDTIQEQITLYDHWDKYHEQWIKFLLHTLYLRPASAI
		binding [3]: binds; binding [4]: no binding	Tfs2 (protein, UniProt P07273 1-309) MDSKEVLVHVKNLEKNKSNDAAVLEILHVLDKEFVPTEKLLRETKVGVEVNKFKKSTNVEISKLVKKMISSWKDAINKNKRSRQAQQHHQDHAPGNAEDKTTVGESVNGVQQPASSQSDAMKQDKYVSTKPRNSKNDGVDTAIYHHKLRDQVLKALYDVLAKESEHPPQSILHTAKAIESEMNKVNNCDTNEAAYKARYRIIYSNVISKNNPDLKHKIANGDITPEFLATCDAKDLAPAPLKQKIEEIAKQNLYNAQGATIERSVTDRFTCGKCKEKKVSYYQLQTRSADEPLTTFCTCEACGNRWKFS
